doi:10.1101/2021.03.09.434456 (bioRxiv, 2021)
These are yes or no findings as the source states them, for the method shown. One block for each binder: values may come before it.

Tests used:
[1] = biological target: mouse Kirrel3 Q128A ectodomain (mouse) (UniProt Q8BR86); assay: SEC-MALS
[2] = biological target: mouse Kirrel2 D1 Q101A (mouse) (UniProt Q7TSU7); assay: SEC

binding [1]: no binding
B1: mouse Kirrel3 Q128A ectodomain (domain or fragment, UniProt Q8BR86 22-535)
chain: LQKRGCCLVLGYMAKDKFRRMNEGQVYSFSQQPQDQVVVSGQPVTLLCAIPEYDGFVLWIKDGLALGVGRDLSSYPQYLVVGNHLSGEHHLKILRAELQDDAVYECAAIQAAIRSRPARLTVLVPPDDPIILGGPVISLRAGDPLNLTCHADNAKPAASIIWLRKGEVINGATYSKTLLRDGKRESIVSTLFISPGDVENGQSIVCRATNKAIPGGKETSVTIDIQHPPLVNLSVEPQPVLEDNIVTFHCSAKANPAVTQYRWAKRGHIIKEASGELYRTTVDYTYFSEPVSCEVTNALGSTNLSRTVDVYFGPRMTSEPQSLLVDLGSDAVFSCAWIGNPSLTIVWMKRGSGVVLSNEKTLTLKSVRQEDAGKYVCRAVVPRVGAGEREVTLTVNGPPIISSTQTQHALHGEKGQIKCFIRSTPPPDRIAWSWKENVLESGTSGRYTVETVNTEEGVISTLTISNIVRADFQTIYNCTAWNSFGSDTEIIRLKEQGSEMKSGAGLEAESVPMA

binding [2]: no binding
B2: mouse Kirrel2 D1 Q101A (domain or fragment, UniProt Q7TSU7 21-119)
chain: PHFLQQPEDMVVLLGEEARLPCALGAYRGLVQWTKDGLALGGERDLPGWSRYWISGNSASGQHDLHIKPVELEDEASYECAASQAGLRSRPAQLHVMVP
